Where two headings read alike, the source gives them in different places. No constants are given. Whether binding was seen depends on the method and setting. For some of these results: Binding seen in cells or lysates may run through a third protein. Some binding calls cover weakened binding; strength is not graded here.
Assays:
[1] = biological target: GFP-hCIB2 (calcium and integrin binding protein 2) (human) (UniProt O75838); experiment: NanoSPD
GFP-hMETTL5 (human) = GFP-hMETTL5 (human) (UniProt Q9NRN9); experiment: NanoSPD
[2] = biological target: GFP-hCIB2 (calcium and integrin binding protein 2) (human) (UniProt O75838); experiment: NanoSPD; remark: listed apart in the source
tdTomato-CIB2 = tdTomato-CIB2 (UniProt O75838); experiment: co-IP
[3] = biological target: HA-GST-Rheb (WT, in HEK293) (UniProt Q15382); experiment: co-IP
HA-GST-Rheb S20N = HA-GST-Rheb S20N (UniProt Q15382); experiment: co-IP
HA-GST-Rheb C181S = HA-GST-Rheb C181S (UniProt Q15382); experiment: co-IP
HA-GST-Rheb D60V = HA-GST-Rheb D60V (UniProt Q15382); experiment: co-IP
HA-GST-Rheb D60I = HA-GST-Rheb D60I (UniProt Q15382); experiment: co-IP
HA-GST-Rheb D60K = HA-GST-Rheb D60K (UniProt Q15382); experiment: co-IP
HA-GST-Rheb Δ181-184 = HA-GST-Rheb Δ181-184 (UniProt Q15382); experiment: co-IP
[4] = biological target: HA-GST-Rheb (WT, in HEK293) (UniProt Q15382); experiment: pull-down
[5] = biological target: HA-GST-Rheb (WT, in HEK293) (UniProt Q15382); experiment: pull-down; remark: listed apart in the source

Amino acid sequences for entries named in this document (tags omitted). A change or cut given only in a name is not applied to a line headed by its entry.
UniProt O75838, whole entry: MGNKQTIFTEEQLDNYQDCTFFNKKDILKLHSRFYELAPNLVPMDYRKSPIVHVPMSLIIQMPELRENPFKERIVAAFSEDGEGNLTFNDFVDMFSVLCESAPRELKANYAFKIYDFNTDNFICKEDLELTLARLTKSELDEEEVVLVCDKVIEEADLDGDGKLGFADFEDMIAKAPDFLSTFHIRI
UniProt Q9NRN9, whole entry: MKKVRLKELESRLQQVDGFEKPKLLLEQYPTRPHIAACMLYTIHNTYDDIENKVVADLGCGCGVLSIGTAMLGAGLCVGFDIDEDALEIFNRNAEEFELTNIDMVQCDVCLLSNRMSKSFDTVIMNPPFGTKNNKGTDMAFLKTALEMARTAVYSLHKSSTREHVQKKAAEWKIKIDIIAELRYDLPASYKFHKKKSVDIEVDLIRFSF
UniProt Q15382, whole entry: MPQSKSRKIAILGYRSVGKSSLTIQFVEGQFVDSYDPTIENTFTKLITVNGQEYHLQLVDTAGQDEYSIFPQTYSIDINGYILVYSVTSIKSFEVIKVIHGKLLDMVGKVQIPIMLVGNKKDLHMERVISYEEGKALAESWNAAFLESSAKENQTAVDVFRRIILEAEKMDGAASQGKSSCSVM
UniProt Q8N122, whole entry: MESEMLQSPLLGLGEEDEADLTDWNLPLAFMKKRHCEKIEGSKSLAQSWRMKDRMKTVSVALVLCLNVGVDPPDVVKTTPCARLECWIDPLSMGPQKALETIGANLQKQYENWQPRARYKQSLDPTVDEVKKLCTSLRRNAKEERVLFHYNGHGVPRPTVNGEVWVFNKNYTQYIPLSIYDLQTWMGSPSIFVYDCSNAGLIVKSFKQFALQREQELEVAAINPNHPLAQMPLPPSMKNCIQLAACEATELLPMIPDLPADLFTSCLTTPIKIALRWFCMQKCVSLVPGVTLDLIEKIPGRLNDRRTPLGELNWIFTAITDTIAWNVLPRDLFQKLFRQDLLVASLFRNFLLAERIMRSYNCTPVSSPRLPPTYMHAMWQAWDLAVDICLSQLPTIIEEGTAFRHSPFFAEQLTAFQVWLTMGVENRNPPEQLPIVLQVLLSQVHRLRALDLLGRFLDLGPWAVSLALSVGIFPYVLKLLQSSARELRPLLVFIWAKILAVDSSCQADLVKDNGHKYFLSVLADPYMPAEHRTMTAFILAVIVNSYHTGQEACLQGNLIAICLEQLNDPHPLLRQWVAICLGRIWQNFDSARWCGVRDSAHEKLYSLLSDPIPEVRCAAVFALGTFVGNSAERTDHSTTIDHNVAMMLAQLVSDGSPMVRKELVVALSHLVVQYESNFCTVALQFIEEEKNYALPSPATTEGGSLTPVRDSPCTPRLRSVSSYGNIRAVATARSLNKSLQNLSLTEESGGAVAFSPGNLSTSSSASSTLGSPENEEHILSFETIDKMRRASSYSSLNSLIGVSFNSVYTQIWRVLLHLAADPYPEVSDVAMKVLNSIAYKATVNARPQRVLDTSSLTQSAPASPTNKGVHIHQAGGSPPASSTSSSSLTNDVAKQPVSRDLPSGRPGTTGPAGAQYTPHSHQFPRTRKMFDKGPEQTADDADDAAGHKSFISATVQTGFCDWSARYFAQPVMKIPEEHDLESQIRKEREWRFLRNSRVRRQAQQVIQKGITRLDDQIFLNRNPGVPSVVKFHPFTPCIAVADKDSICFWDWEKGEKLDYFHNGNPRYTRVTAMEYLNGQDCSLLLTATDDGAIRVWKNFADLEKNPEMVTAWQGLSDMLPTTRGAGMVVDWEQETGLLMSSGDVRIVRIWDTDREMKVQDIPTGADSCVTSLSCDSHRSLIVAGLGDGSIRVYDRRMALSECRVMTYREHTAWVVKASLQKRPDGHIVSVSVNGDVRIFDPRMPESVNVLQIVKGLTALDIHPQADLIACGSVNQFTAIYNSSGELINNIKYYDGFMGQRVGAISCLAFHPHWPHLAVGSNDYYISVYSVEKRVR
UniProt Q96EZ8, whole entry: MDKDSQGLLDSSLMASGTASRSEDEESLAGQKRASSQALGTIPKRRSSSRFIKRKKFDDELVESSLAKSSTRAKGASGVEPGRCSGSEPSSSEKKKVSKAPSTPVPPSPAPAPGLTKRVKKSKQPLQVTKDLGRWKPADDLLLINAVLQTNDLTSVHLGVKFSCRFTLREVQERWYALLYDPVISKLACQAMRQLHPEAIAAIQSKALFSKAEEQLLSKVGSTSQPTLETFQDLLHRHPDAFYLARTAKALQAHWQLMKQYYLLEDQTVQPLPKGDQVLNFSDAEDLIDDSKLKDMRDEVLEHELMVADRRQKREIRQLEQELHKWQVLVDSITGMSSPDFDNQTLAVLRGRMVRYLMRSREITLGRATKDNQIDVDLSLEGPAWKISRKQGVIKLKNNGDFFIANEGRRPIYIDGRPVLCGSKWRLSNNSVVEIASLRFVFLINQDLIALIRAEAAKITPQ

Q: For “HA-GST-Rheb (in COS-7) (from UniProt Q15382 1-184)”, which binding [1] is on record?
A: The binding was “binds”.

Q: What about the binding (GFP-hMETTL5 (human)) of the same substance?
A: The binding was “no binding”.

Q: With “HA-mCherry-Raptor (from UniProt Q8N122 1-1335)” as the substance, how does the binding [1] read?
A: The binding was “binds”.

Q: And the binding (GFP-hMETTL5 (human))?
A: Its binding is “no binding”.

Q: What about the binding [2] of the same substance?
A: The binding was “binds”.

Q: With “Raptor (exogenously expressed in HEK293) (from UniProt Q8N122 1-1335)” as the substance, how does the binding (tdTomato-CIB2) read?
A: Its binding is “binds”.

Q: For “microspherule protein 1 (MCRS1) (from UniProt Q96EZ8 1-462)”, which binding [1] is on record?
A: Its binding is “no binding”.

Q: Which binding [3] does the source give for “tdTomato-CIB2 (from UniProt O75838 1-187)” here?
A: The binding was “binds”.

Q: And the binding (HA-GST-Rheb S20N)?
A: The binding was “binds”.

Q: What about the binding (HA-GST-Rheb C181S) of the same substance?
A: The binding was “binds”.

Q: What about the binding (HA-GST-Rheb D60V) of the same substance?
A: Its binding is “binds”.

Q: And the binding (HA-GST-Rheb D60I)?
A: Its binding is “binds”.

Q: What about the binding (HA-GST-Rheb D60K) of the same substance?
A: Its binding is “binds”.

Q: And the binding (HA-GST-Rheb Δ181-184)?
A: Its binding is “binds”.

Q: What about the binding [4] of the same substance?
A: Its binding is “binds”.

Q: What about the binding [5] of the same substance?
A: The binding was “binds”.

From doi:10.1101/2020.09.18.302265
